{"sequences": {"note": "By UniProt entry, the sequences of proteins in these tests, tags left out. Residues count along the entry.", "UniProt P9WQ35, 204-443 limits assumed": "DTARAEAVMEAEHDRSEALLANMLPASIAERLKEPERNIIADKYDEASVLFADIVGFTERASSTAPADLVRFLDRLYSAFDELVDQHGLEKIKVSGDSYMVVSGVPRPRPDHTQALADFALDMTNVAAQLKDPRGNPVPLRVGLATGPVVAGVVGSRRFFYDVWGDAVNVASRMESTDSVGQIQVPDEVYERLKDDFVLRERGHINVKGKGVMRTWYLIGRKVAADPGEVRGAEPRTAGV"}, "source": "patent US20050048603A1", "about": "(priority 2001, published 2005)", "biological_target": "mycoAC (adenylyl cyclase Rv1625c) (Mycobacterium tuberculosis, UniProt P9WQ35)", "format": "biochemical", "note": "For at least one compound, name, drawing or mass did not settle the structure.", "data": [{"smiles": "C=C[C@@]1(C)CC(=O)[C@]2(O)[C@@]3(C)[C@@H](O)CCC(C)(C)[C@@H]3[C@H](O)[C@H](OC(C)=O)[C@@]2(C)O1", "note": "[forskolin]", "values": [{"measurement": "activation of mycoAC", "result": "did not activate"}]}]}
